Source: patent publication US12427106B2, “Elastic sheet with function of re-activating endometrial basal layer in uterine cavity and forming method thereof” (YIPURUN (SHANGHAI) BIOTECHNOLOGY CO., LTD., priority 2018, dated 2025)
For at least one compound, name, drawing or mass did not settle the structure.

Test system: uteri of the test animals (trauma models obtained by surgical curettage)
Test: New Zealand rabbit trauma models by surgical curettage: implanted elastic sheet (group B) versus oral estradiol (group A), adhesions in the uteri
Assay type: in vivo, New Zealand rabbits

C[C@]12CC[C@@H]3c4ccc(O)cc4CC[C@H]3[C@@H]1CC[C@@H]2O [estradiol]
different degrees of adhesions: adhesions in the uteri of the test animals after 30 days (after 30 days, sheet implanted (group B) or same dose per weight of estradiol by oral (group A)) | adhesions in the uteri of the test animals after 60 days (after 60 days, sheet implanted (group B) or estradiol by oral (group A)) | adhesions in the uteri of the test animals after 90 days (after 90 days, sheet implanted (group B) or estradiol by oral (group A))
